Assay results: US20220306739A1
Results are given in words; binding and its absence hold for the method and conditions named. Some results given as binding are weak or reduced against the parent protein; the word gives no strength.

The chains behind the UniProt entries cited, without tags or fusion partners.
UniProt P01850: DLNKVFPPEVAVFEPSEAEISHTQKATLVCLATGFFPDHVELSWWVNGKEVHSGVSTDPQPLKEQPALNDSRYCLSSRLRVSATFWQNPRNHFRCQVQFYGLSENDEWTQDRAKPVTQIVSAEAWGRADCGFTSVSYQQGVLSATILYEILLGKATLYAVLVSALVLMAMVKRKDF

Key:
[1] = target: TCR with TRBC1 on Jurkat cells (human) (UniProt P01850); assay: flow cytometry cell binding to Jurkat E6.1 cells (TRBC1), signal:background ratio
[2] = target: TCR with TRBC1 on Jurkat cells (human) (UniProt P01850); assay: flow cytometry on cells

binding [1]: binds
binding [2]: binds
B1: anti-TRBC1 antibody JOVI-1 mIgG2a (TRB1B1) (antibody, V domains shown)
VH: EVRLQQSGPDLIKPGASVKMSCKASGYTFTGYVMHWVKQRPGQGLEWIGFINPYNDDIQSNERFRGKATLTSDKSSTTAYMELSSLTSEDSAVYYCARGAGYNFDGAYRFFDFWGQGTTLTVSS
VL: DVVMTQSPLSLPVSLGDQASISCRSSQRLVHSNGNTYLHWYLQKPGQSPKLLIYRVSNRFPGVPDRFSGSGSGTDFTLKISRVEAEDLGIYFCSQSTHVPYTFGGGTKLEIK
